{
  "sequences": {"note": "Protein sequences, listed by entry. Tags and fused reporters are not part of them. Lines headed by an entry give the natural chain unless they say otherwise; changes in a name come on top.", "UniProt P22646": "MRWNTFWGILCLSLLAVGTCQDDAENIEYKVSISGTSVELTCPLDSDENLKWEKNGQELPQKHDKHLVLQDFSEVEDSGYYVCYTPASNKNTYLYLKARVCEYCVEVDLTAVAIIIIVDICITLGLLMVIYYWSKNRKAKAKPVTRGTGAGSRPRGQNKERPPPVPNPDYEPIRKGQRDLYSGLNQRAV"},
  "source": "patent US20220227887A1",
  "about": "(ONO PHARMACEUTICAL, published 2022)",
  "binders": {"B1": {"name": "bispecific molecule TKB58x2C11 (bispecific antibody)", "chain": "DAAQPARVQLQQSGAELVRPGALVKLSCKASGFNIKDYYMHWVKQRPEQGLEWIGWIDPENGNTIYDPKFQDKASLTADTSSNTAYLQLSSLTSEDTAVYYCAPERGYDYAMDYWGQGTSVTVSSGGGGSDIQMTQSPSSLPASLGDRVTINCQASQDISNYLNWYQQKPGKAPKLLIYYTNKLADGVPSRFSGSGSGRDSSFTISSLESEDIGSYYCQQYYNYPWTFGPGTKLEIKGGGGSGGGGSGGGGSEVQLVESGGGLVQPGKSLKLSCEASGFTFSGYGMHWVRQAPGRGLESVAYITSSSINIKYADAVKGRFTVSRDNAKNLLFLQMNILKSEDTAMYYCARFDWDKNYWGQGTMVTVSSGGGGSIVLTQSPATLSVTPGDSVSLSCRASQSISNNLHWYQQKSHESPRLLIKYASQSISGIPSRFSGSGSGTDFTLSINSVETEDFGMYFCQQSNSWPQYTFGGGTKLEIKGGGGSDYKDDDDKNSAVDHHHHHH"}},
  "target": "mouse CD3 epsilon on DO11.10 cells (mouse) (UniProt P22646)",
  "assay": "cell staining with culture supernatant, DO11.10 cells",
  "note": "Results are given in words; binding and its absence hold for the method and conditions named. Some results given as binding are weak or reduced against the parent protein; the word gives no strength.",
  "data": [
    {"binder": "B1", "values": [
      {"measurement": "binding", "result": "binds"}
    ]}
  ]
}
